No constants are given. Whether binding was seen depends on the method and setting. In cells and extracts the contact can be indirect. Some results given as binding are weak or reduced against the parent protein; the word gives no strength.
Legend:
[1] = target: SMAD1 (human (endogenous in HAoECs)) (UniProt Q15797); test: proximity ligation
[2] = target: SMAD1 (human (endogenous in HAoECs)) (UniProt Q15797); test: co-IP

By UniProt entry, the sequences of proteins in these tests, tags left out.
UniProt Q15797: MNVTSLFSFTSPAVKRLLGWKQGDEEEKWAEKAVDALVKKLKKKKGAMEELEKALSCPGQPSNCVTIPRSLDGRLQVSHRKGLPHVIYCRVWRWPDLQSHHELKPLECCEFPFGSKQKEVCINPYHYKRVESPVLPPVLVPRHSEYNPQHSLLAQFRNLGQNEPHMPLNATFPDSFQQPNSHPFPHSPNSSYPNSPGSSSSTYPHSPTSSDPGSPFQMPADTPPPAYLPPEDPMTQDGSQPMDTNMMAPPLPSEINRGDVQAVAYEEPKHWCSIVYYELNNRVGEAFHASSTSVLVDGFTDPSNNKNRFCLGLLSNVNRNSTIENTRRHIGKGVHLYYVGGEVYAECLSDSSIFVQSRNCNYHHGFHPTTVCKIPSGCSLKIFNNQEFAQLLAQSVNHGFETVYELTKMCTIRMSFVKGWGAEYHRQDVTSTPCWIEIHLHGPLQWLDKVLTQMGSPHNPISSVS
UniProt Q12778: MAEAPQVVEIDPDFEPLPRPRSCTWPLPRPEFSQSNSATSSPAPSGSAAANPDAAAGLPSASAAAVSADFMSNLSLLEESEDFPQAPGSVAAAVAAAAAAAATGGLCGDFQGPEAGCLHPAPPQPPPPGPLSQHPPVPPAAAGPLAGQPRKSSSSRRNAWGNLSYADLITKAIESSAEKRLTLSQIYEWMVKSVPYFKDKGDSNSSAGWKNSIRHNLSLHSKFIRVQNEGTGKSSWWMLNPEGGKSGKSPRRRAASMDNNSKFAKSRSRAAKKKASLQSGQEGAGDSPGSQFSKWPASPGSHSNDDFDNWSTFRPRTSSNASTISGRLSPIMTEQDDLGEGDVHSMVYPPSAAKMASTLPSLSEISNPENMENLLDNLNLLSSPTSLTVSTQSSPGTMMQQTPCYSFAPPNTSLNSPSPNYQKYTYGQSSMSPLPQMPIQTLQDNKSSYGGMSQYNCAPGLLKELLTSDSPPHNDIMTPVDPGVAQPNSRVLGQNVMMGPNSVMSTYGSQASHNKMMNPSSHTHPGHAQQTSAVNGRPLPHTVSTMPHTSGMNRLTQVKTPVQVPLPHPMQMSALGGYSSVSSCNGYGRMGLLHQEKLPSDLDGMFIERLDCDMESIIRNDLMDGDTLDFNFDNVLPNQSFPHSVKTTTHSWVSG

FOXO1 (Forkhead Box O1) (from UniProt Q12778 1-655)
binding [1]: binds
binding [2]: binds
